# Data published in article PMC12059635.
# Sequences of proteins named here, by UniProt entry; tags and fusion partners are left off.
# UniProt Q8C2B3: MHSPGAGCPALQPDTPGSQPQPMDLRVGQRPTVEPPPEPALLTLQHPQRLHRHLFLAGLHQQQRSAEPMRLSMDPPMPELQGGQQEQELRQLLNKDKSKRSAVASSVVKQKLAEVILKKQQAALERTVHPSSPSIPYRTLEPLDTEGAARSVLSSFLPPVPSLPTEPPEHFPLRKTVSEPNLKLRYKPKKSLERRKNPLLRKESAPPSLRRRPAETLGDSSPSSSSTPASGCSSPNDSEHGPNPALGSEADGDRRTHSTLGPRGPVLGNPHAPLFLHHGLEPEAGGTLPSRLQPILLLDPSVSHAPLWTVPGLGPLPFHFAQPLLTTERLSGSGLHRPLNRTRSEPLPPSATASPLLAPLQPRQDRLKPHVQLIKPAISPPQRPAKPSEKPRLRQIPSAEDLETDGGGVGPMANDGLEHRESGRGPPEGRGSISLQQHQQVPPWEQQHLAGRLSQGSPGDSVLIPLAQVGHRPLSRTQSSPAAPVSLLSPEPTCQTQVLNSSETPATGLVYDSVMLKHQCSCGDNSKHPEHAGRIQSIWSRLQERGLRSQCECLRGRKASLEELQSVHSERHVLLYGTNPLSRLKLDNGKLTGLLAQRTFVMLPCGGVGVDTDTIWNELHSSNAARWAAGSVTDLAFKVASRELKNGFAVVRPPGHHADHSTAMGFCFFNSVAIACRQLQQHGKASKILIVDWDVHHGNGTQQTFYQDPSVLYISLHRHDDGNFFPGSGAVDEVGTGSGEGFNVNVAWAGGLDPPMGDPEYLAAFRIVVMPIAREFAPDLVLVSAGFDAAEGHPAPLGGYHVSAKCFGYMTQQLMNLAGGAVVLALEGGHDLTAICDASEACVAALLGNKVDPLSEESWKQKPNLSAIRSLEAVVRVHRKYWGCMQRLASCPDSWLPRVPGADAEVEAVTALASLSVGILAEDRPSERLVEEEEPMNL
# UniProt O70126: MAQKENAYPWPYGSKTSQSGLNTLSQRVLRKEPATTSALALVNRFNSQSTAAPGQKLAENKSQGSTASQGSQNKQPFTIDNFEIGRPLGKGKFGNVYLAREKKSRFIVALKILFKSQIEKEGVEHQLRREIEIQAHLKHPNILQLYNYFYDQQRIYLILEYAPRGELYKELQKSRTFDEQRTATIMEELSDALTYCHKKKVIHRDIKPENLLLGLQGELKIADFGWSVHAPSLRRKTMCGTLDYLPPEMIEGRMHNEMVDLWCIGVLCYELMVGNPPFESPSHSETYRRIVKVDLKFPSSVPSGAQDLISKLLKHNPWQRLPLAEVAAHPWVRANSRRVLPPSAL
# UniProt Q61881: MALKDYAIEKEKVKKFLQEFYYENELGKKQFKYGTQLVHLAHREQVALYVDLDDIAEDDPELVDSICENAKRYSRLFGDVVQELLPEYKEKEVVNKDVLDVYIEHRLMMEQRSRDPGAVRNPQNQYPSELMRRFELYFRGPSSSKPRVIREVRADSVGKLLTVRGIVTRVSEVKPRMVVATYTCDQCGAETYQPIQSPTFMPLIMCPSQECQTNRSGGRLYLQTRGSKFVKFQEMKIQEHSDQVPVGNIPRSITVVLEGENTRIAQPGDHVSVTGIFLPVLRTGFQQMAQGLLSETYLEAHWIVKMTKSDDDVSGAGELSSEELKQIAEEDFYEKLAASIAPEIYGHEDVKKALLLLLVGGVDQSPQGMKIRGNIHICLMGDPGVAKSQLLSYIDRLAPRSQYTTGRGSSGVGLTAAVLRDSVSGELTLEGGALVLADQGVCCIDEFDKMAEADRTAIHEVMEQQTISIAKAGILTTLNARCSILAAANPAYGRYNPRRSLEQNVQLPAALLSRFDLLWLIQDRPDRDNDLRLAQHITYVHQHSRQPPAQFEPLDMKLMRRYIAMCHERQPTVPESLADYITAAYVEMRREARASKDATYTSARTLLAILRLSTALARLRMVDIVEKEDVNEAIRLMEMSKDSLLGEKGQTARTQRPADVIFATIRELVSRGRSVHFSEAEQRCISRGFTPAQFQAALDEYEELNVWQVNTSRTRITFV
# Biological target: Histone deacetylase 7 (HDAC7), wild type (mouse) (UniProt Q8C2B3)
# Assay: affinity purification with mass spectrometry; lysates of Hdac7-WT or Hdac7-L112A OE NMCMs immunoprecipitated by FLAG antibody on beads; on-bead digestion, LC-MS/MS, label-free quantification (MaxQuant LFQ)
row,Molecule,binding
1,AURKB (from UniProt O70126 1-345),binds
2,CDK2 (from UniProt P97377 1-346),binds
3,Minichromosome maintenance protein 7 (MCM7) (from UniProt Q61881 1-719),binds
4,"SWI/SNF-related, matrix-associated actin-dependent regulator of chromatin, subfamily A, containing DEAD/H box 1 (SMARCAD1) (protein, UniProt Q04692 1-1021) MNLFNLDRFRFEKRSKIEEAPEAAPQPSQARPSSPISLSAEEENAEGEGSRANTPDSDVTEKTEDSSVPEPPDNERKASLSCFQNQRAIQEYIDLSSDTEDVSPNCSSTVQEKKFSKDTVIIVSEPSEDEESHDLPSVTRRNDSSELEDLSELEDLKDAKLQTLKELFPQRSDSDLLKLIESTSTMDGAIAAALLMFGDAGGGPRKRKLSSSSEEDDVNDDQSVKQPRGDRGEESNESAEASSNWEKQESIVLKLQKEFPNFDKQELREVLKEHEWMYTEALESLKVFAEDQDVQCASQSEVTNGKEVARNQNYSKNATKIKMKQKISVKPQNGFNKKRKKNVFNPKKAVEDSEYDSGSDAGSSLDEDYSSCEEVMEDGYKGKILHFLQVSSIAELTLIPKCSQKKAQKITELRPFNNWEALFTKMSKINGLSEDLIWNCKTVIQERDVVIRLMNKCEDISNKLTKQVTMLTGNGGGWNREQPSLLNQSLSLKPYQKVGLNWLALVHKHGLNGILADEMGLGKTIQAIAFLAYLFQEGNKGPHLIVVPASTIDNWLREVNLWCPSLNVLCYYGSQEERKQIRFNIHNKYEDYNVIVTTYNCAISSSDDRSLFRRLKLNYAIFDEGHMLKNMGSIRYQHLMTINARNRLLLTGTPVQNNLLELMSLLNFVMPHMFSSSTSEIRRMFSSKTKPADEQSIYEKERIAHAKQIIKPFILRRVKEEVLKLLPPKKDRIELCAMSEKQEQLYSGLFNRLKKSINNLEKNTEMCNVMMQLRKMANHPLLHRQYYTPEKLKEMSQLMLKEPTHCEANPDLIFEDMEVMTDFELHVLCKQYQHINSYQLDMDLILDSGKFRALGCILSELKQKGDRVVLFSQFTMMLDILEVLLKHHQHRYLRLDGKTQISERIHLIDEFNTDMDIFVFLLSTKAGGLGINLTSANVVILHDIDCNPYNDKQAEDRCHRVGQTKEVLVIKLISQGTIEESMLKINQQKLKLEQDMTTVDEADEGSMPADIATLLKTSMGL",binds

# These are yes or no findings as the source states them, for the method shown. Binding seen in cells or lysates may run through a third protein. Here binding means that the protein was enriched with, or labelled near, the bait; the list need not be complete.
